The results in this text go back to paper PMC5996148.

The chains behind the UniProt entries cited, without tags or fusion partners. Where a name states a change or a piece, a line headed by the entry shows the natural chain unless it says otherwise.
UniProt O43379: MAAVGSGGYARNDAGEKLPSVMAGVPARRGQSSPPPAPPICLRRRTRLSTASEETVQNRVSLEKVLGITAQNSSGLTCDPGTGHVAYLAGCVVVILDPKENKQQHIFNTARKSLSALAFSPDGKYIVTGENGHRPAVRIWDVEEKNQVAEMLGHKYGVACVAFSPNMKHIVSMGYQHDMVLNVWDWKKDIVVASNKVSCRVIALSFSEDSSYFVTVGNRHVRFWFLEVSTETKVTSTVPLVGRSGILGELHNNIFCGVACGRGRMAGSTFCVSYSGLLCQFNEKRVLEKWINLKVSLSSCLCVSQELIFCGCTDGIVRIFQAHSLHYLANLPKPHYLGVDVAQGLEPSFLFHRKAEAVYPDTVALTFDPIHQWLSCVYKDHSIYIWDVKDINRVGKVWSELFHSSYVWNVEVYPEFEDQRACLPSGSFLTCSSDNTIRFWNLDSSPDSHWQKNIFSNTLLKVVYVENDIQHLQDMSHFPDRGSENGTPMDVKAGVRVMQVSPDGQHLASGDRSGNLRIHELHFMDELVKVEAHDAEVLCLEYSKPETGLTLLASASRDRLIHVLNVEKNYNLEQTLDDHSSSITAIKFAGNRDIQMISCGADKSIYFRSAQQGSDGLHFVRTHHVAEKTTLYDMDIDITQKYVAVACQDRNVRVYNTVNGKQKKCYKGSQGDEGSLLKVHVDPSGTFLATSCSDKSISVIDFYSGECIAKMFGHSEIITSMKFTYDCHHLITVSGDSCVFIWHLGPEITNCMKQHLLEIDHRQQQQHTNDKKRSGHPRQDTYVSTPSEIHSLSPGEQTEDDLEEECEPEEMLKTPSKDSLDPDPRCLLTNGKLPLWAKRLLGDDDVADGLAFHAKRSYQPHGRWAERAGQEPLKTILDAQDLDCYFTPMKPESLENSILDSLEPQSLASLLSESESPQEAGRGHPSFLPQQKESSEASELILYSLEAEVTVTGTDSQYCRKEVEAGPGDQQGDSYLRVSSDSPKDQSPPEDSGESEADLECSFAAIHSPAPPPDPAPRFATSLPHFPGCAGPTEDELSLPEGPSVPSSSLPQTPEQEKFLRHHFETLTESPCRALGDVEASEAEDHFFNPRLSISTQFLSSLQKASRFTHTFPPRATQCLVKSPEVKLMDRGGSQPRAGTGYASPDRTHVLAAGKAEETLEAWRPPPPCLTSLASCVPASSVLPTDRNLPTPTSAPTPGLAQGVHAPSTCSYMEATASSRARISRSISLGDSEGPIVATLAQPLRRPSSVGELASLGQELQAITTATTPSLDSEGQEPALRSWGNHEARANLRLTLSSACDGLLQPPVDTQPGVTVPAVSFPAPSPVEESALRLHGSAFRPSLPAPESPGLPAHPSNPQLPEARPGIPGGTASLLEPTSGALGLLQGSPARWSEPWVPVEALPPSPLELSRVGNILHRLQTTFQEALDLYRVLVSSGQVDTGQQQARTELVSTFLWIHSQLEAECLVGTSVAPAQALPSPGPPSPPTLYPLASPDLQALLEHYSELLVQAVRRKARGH

Values joined by “and” are separate entries in the source; they are usually repeats but may differ in a detail not shown here. Identical values can stand only once. The list shows a part of the results. For some assays here: Construct or isoform of the protein are uncertain.

Common to all, as to test: protein microarray (ProtoArray v5.0), streptavidin-Alexa Fluor 647
Holding throughout (conditions): 3'-biotin; 20 mM Tris (pH 7.5), 5 mM MgCl2, 100 mM KCl, 0.1% Tween-20, A/T-rich and random oligonucleotide blockers; temperature not stated; high values mean tight binding

One assay addresses T1, WDR18 (UniProt Q9BV38).
T1 sequence: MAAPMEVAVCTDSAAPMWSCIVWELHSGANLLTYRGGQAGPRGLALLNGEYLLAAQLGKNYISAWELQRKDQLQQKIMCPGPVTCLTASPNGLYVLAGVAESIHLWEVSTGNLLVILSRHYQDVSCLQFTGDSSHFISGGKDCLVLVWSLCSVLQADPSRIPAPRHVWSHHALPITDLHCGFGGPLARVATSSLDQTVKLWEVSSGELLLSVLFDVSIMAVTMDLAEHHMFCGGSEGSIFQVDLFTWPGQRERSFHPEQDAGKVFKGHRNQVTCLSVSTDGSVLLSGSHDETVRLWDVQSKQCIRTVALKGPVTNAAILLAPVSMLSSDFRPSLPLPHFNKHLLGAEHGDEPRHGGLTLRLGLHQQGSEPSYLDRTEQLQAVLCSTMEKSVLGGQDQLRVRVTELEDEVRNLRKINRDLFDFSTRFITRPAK

A further assay concerns WDR23 (human).
A further assay concerns WDR24 (human).
For the next assay, the system named is WDR25 (human).
The next assay concerns WDR31 (human).
The subject of a further assay is WDR34 (human).
A further assay deals with WDR62 (UniProt O43379).
Another assay relates to WDR92 (human).
Another assay deals with WFDC2 (human).
A further assay deals with WFDC6 (human).
The test system of another assay is WIF1 (human).
Assay [1] deals with WNT1-inducible-signaling pathway protein 1 (human).
A further assay relates to WTAP (human).
For assay [2], the system named is WW domain-containing oxidoreductase (human).
The test system of a further assay is WWTR1 (human).
The subject of assay [3] is Williams-Beuren syndrome chromosomal region 28 protein (human).
In another assay the test system is XCL1 (human).
Another assay concerns XKR8 (human).
Another assay has as its system XTP3TPA (human).
A further assay concerns YIPF1 (human).

For the sequence “GGGAGGCTGAGGCAGG [G4-1 biotinylated (PQS2)]”, the binding signal in the assay with WDR18 was -0.342 z-score; with WDR23 (human), -0.227 z-score; with WDR24 (human), -0.323 z-score; with WDR25 (human) it was -0.322 z-score; in the assay on WDR31 (human), -0.311 z-score; with WDR34 (human) it was -0.332 z-score. Besides, the binding signal is -0.295 z-score with WDR62; -0.339 z-score with WDR92 (human); -0.326 z-score in the assay on WFDC2 (human); -0.351 z-score with WFDC6 (human); -0.328 z-score in the assay on WIF1 (human); -0.335 z-score in assay [1]. Further, the binding signal with WTAP (human) was -0.343 z-score and -0.331 z-score; in assay [2], -0.33 z-score; in the assay with WWTR1 (human), -0.322 z-score; in assay [3], -0.287 z-score; in the assay on XCL1 (human), -0.328 z-score; with XKR8 (human), -0.266 z-score. The binding signal in the assay on XTP3TPA (human) is -0.291 z-score; in the assay with YIPF1 (human), -0.341 z-score.
